PubChem BioAssay AID1671195, Yale University, 2021
Assay: 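Regulators of LDL receptor activity judged by labelled LDL uptake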 (primary screen). System: human Huh7 hepatoma cells. Reagent: siRNA pool against human genes, 18 nM. Time to read-out: about 2 to 2.5 days of knockdown, then 8 h LDL uptake. Challenge: DiI-labelled LDL at 30 µg/ml for 8 h, in lipoprotein-deficient serum medium. Read-out: 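Fluorescent LDL signal imaged in cells, scaled to the plate median, robust z-score for each replicate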. Reading the numbers: robust z-score: higher = more LDL uptake after knockdown. Hit rule: 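Active when two or more replicates show a robust z-score above 2 or below -2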.
In all, the deposit lists about 22,000 reagents; shown is an unselected part. Over the whole deposit, about 1,510 (6.9%) were called active. 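Active includes knockdowns raising or lowering LDL uptake; positive z-scores mean more uptake, negative mean less.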 Reagents against one gene are numbered here.

Target gene	pool no.	robust z-score, replicate 1	robust z-score, replicate 2	robust z-score, replicate 3	outcome
ZNF845	1	0.733	1.79	1.11	inactive
DHFR2	1	-0.929	-1.15	-0.737	inactive
SNAPC3	1	-0.908	-1.31	-0.187	inactive
SCN1A	1	-0.041	-0.00632	-0.168	inactive
PRTN3	1	-1.2	-1.48	-0.918	inactive
MAGEB5	1	0.0911	-0.136	0.703	inactive
FBXW4	1	-0.577	-1.71	-1.51	inactive
OR56B1	1	-0.423	-0.518	0.0932	inactive
CLTCL1	1	0.0568	-0.561	-0.362	inactive
OSGEPL1	1	-0.264	0.818	0.202	inactive
ZNF304	1	-0.965	-1.14	-0.946	inactive
LOC392164 (retired record)	1	0.563	-0.251	-0.524	inactive
CYSLTR1	1	-2.49	2.88	0.0766	inactive
OBSCN	1	-0.107	0.0983	0.675	inactive
OBSCN	2	-0.185	0.0461	0.0707	inactive
VNN1	1	0.523	0.903	1.09	inactive
CXCL8	1	1.46	2.01	1.69	inactive
ADCY10P1	1	-0.168	-0.348	0.0143	inactive
HADH	1	0.75	1.24	1.5	inactive
FBXW8	1	-0.919	0.423	1.72	inactive
AMY2B	1	1.3	1.32	0.501	inactive
LOC389318 (retired record)	1	0.0951	0.149	0.579	inactive
FFAR3	1	0.0235	0.505	0.205	inactive
RPL36AL	1	-0.705	-0.727	-0.999	inactive
LOC440134 (retired record)	1	0.829	0.872	0.599	inactive
AGA-DT	1	-1.15	-0.691	-0.913	inactive
ROBO3	1	0.548	0.142	1.26	inactive
WIPI2	1	-1.63	0.0502	0.208	inactive
CHRNA9	1	3.6	3.59	2.78	active
PTPN23	1	-0.415	-0.418	-0.81	inactive
MPST	1	-0.39	-0.75	-1.33	inactive
NOL11	1	-1.03	-0.614	-1.06	inactive

6 entries from above, reformatted.
ZNF304
- robust z-score, replicate 1: -0.965
- robust z-score, replicate 2: -1.14
- robust z-score, replicate 3: -0.946
- outcome: inactive

LOC392164 (retired record)
- robust z-score, replicate 1: 0.563
- robust z-score, replicate 2: -0.251
- robust z-score, replicate 3: -0.524
- outcome: inactive

CYSLTR1
- robust z-score, replicate 1: -2.49
- robust z-score, replicate 2: 2.88
- robust z-score, replicate 3: 0.0766
- outcome: inactive

OBSCN #1
- robust z-score, replicate 1: -0.107
- robust z-score, replicate 2: 0.0983
- robust z-score, replicate 3: 0.675
- outcome: inactive

OBSCN #2
- robust z-score, replicate 1: -0.185
- robust z-score, replicate 2: 0.0461
- robust z-score, replicate 3: 0.0707
- outcome: inactive

VNN1
- robust z-score, replicate 1: 0.523
- robust z-score, replicate 2: 0.903
- robust z-score, replicate 3: 1.09
- outcome: inactive

Continued:
Target gene	pool no.	robust z-score, replicate 1	robust z-score, replicate 2	robust z-score, replicate 3	outcome
ZNF10	1	-0.926	-0.5	-1.16	inactive
GPR27	1	0.31	0.0105	-0.264	inactive
TPP1	1	-0.519	-0.265	-0.938	inactive
PLPP1	1	-0.00981	-0.112	0.155	inactive
SCN2B	1	-0.374	-0.445	-0.0618	inactive
RAD23A	1	-0.796	-1.12	-0.657	inactive
IL17A	1	-1.2	-0.462	-1.12	inactive
COLEC11	1	0.116	-0.147	-0.442	inactive
ADCYAP1R1	1	-0.389	-0.359	-0.622	inactive
PDCD2L	1	-0.703	-0.0639	0.147	inactive
NHERF2	1	-0.267	-1.23	-0.928	inactive
STON2	1	-0.272	0.696	-0.103	inactive
CASP8AP2	1	0.824	-1.17	1.28	inactive
TSPAN31	1	1.25	1.48	0.963	inactive
CA8	1	-0.559	-0.4	-0.8	inactive
IL17RA	1	0.349	1.19	0.818	inactive
FIRRM	1	-1.35	-0.652	-1.96	inactive
DNAAF11	1	0.298	-0.152	1.71	inactive
CD1C	1	0.946	-0.056	1.99	inactive
LOC388416 (retired record)	1	-0.488	-0.0891	0.141	inactive
GPR55	1	5.79	4.37	5.01	active
RNF19A	1	0.162	0.257	-0.125	inactive
METTL5	1	0.325	0.22	-0.234	inactive
HPSE2	1	0.152	0.152	0.167	inactive
GAL3ST4	1	0.321	0.74	1.11	inactive
KMO	1	-0.501	-0.683	-0.541	inactive
RBPMS2	1	-0.629	-0.869	-0.491	inactive
OR10H3	1	0.0998	-0.337	0.503	inactive
BHLHE41	1	-0.299	0.171	1.19	inactive
AMN1	1	1.61	1.23	2.51	inactive
IGHV1OR15-1	1	2.23	1.65	2.58	active
HMGB2	1	-0.19	-1.02	0.167	inactive
OARD1	1	1.52	1.78	1.51	inactive
DOCK6	1	-1.33	-1.03	2.09	inactive
GPBP1	1	-0.129	1.58	1.03	inactive
KCMF1	1	1.82	1.32	1.71	inactive
